Laboratory results: PubChem BioAssay AID504786 (Drosophila RNAi Screening Center, 2011)
Assay: 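Knock-downs reducing HIF reporter induction by the iron chelator DFO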 (primary screen). Cell system: Drosophila S2 cells with a stable HIF luciferase reporter. Reagents: long dsRNA against Drosophila genes, about 0.2 µg dsRNA per well of a 384-well plate. Time to read-out: three days of knock-down, then 20 h of DFO before reading. Treatment: desferrioxamine (DFO) at 100 µM, an iron chelator that mimics hypoxia, for 20 h. Detection: 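Firefly luciferase driven by the mouse ldh-a hypoxia-response element, measured after 20 h of 100 µM DFO; z-scores per plate, higher means more signal lost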. Reading the numbers: z-score: higher = stronger loss of HIF reporter signal.
The screen tested about 21,000 reagents; shown is a random part of those that have a named target and a result. 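Primary screen; positive scores mean lost reporter signal, so the sign may be inverted from the usual convention.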 Reagents against one gene are numbered here. A plus sign joins genes that one reagent is predicted to hit.

predicted target | reagent no. | z-score, replicate 1 | z-score, replicate 2 | z-score, replicate 3 | z-score, replicate 4
CG14535 | 1 | -0.2 | -0.4 | – | –
JMJD7 | 1 | 0.2 | -0.2 | – | –
Ppa | 1 | -0.3 | -0.3 | – | –
Dgk | 1 | 0 | -0.1 | – | –
Dgk | 2 | 0 | -0.1 | – | –
Dgk | 3 | -0.2 | -0.1 | – | –
Dgk | 4 | 0 | -0.1 | -0.5 | -0.3
CG43996 | 1 | -0.3 | -0.2 | – | –
CG43996 | 2 | -0.3 | -0.5 | – | –
Sec24AB | 1 | -0.4 | -0.9 | – | –
clt | 1 | -0.2 | -0.4 | – | –
Toll-4 | 1 | -0.4 | -0.2 | – | –
CG32686 | 1 | 0.3 | -0.1 | – | –
Ir52b | 1 | -0.1 | -0.4 | – | –
Nf-YB | 1 | -0.4 | -0.3 | – | –
bur | 1 | -0.4 | -0.7 | – | –
CG9902 | 1 | -0.2 | 0.1 | – | –
Gfat1 | 1 | -0.1 | -0.1 | – | –
Gnmt | 1 | -0.4 | -0.3 | – | –
CG31050 | 1 | 0 | 0 | – | –
sol | 1 | -0.3 | 0.1 | – | –
CR31824 | 1 | 0 | -0.2 | – | –
Cpr97Eb | 1 | -0.5 | -0.5 | – | –
mei-P22 | 1 | 0 | 0.1 | – | –
cib | 1 | -0.3 | -0.5 | -0.6 | -0.1
CG14074 | 1 | 0 | -0.5 | – | –
Ref2 | 1 | -0.3 | -0.2 | – | –
peo | 1 | -0.4 | -0.4 | – | –
CG8613 | 1 | -0.3 | -0.3 | – | –
CG17104 | 1 | -0.4 | -0.1 | – | –
Tom7 | 1 | -0.2 | 0 | – | –
Tom7 | 2 | -0.3 | -0.2 | – | –
CG13893 | 1 | -0.4 | -0.1 | – | –
Der-1 | 1 | 0.9 | 0.6 | – | –
CG10700 | 1 | -0.2 | -0.4 | – | –
Mob4 | 1 | 0.1 | 0.1 | – | –
Sh3beta | 1 | -0.2 | -0.2 | – | –
AcCoAS | 1 | -0.1 | -0.7 | -1 | -0.6
AcCoAS | 2 | -0.3 | -0.3 | – | –
CG15711 | 1 | -0.2 | 0.7 | – | –
KrT95D | 1 | -0.2 | 0.2 | – | –
CG8939 | 1 | -0.1 | 0.4 | – | –
Nfs1 | 1 | -0.1 | -0.6 | – | –
CG31676 | 1 | -0.4 | -0.4 | – | –
Ldh | 1 | -0.3 | -0.8 | – | –
thoc6 | 1 | -0.3 | -0.5 | – | –
CG17928 | 1 | -0.3 | -0.1 | – | –
CG33791 + CG12105 + CG18170 | 1 | -0.3 | 0.8 | – | –
CG30031 + deltaTry + CG30025 + 1 more | 1 | -0.3 | -0.1 | – | –
l(3)L1231 | 1 | -0.2 | -0.5 | – | –
ro | 1 | -0.7 | -0.6 | – | –
apn | 1 | -0.4 | -0.4 | – | –
CG9328 | 1 | -0.2 | -0.1 | – | –
CG17168 | 1 | 1.8 | 1.8 | – | –
Tsp29Fb | 1 | -0.3 | -0.4 | – | –
CG17108 | 1 | -0.4 | -0.5 | – | –

Part of the list above in another layout.
predicted target	reagent no.	z-score, replicate 1	z-score, replicate 2	z-score, replicate 3	z-score, replicate 4
Dgk	4	0	-0.1	-0.5	-0.3
CG43996	1	-0.3	-0.2		
CG43996	2	-0.3	-0.5		
Sec24AB	1	-0.4	-0.9		
clt	1	-0.2	-0.4		
Toll-4	1	-0.4	-0.2		
CG32686	1	0.3	-0.1		
Ir52b	1	-0.1	-0.4		
Nf-YB	1	-0.4	-0.3		
